These results are taken from paper PMC12493207, “Annexin A2 interferes with complement regulation within the glomerulus” (The Journal of Biological Chemistry, 2025).

By UniProt entry, the sequences of proteins in these tests, tags left out. Where a name states a change or a piece, a line headed by the entry shows the natural chain unless it says otherwise.
UniProt P06909: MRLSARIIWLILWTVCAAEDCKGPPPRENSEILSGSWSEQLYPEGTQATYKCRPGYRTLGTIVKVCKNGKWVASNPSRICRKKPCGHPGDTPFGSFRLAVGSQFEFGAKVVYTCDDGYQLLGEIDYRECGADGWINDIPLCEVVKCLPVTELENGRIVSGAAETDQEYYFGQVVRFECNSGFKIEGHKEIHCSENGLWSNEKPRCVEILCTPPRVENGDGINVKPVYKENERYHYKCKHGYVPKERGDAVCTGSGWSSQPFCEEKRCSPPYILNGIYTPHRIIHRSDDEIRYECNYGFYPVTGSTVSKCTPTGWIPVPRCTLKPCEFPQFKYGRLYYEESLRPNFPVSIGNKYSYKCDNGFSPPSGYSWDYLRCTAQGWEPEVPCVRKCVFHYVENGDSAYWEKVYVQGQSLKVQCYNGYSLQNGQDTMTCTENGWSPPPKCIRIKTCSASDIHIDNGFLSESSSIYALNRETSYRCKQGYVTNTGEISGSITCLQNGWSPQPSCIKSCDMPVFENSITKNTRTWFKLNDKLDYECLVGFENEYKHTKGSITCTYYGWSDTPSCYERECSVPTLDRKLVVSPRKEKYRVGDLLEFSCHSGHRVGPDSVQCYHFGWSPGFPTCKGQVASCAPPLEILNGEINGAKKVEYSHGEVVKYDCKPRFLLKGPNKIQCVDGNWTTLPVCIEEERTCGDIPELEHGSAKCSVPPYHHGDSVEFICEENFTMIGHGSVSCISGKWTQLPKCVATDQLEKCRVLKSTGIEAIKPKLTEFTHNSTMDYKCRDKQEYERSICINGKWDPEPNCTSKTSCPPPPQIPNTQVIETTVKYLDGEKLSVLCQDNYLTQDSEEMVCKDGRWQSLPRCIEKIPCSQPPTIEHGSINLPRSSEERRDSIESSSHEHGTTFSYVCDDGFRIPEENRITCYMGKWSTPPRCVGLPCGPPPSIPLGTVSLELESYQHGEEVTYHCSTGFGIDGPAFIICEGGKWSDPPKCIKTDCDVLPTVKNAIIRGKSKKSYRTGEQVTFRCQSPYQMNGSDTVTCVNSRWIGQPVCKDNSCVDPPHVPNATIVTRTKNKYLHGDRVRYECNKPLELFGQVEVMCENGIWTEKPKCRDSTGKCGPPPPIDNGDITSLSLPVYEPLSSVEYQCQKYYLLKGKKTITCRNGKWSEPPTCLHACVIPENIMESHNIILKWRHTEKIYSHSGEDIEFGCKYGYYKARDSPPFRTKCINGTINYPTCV
UniProt P08603: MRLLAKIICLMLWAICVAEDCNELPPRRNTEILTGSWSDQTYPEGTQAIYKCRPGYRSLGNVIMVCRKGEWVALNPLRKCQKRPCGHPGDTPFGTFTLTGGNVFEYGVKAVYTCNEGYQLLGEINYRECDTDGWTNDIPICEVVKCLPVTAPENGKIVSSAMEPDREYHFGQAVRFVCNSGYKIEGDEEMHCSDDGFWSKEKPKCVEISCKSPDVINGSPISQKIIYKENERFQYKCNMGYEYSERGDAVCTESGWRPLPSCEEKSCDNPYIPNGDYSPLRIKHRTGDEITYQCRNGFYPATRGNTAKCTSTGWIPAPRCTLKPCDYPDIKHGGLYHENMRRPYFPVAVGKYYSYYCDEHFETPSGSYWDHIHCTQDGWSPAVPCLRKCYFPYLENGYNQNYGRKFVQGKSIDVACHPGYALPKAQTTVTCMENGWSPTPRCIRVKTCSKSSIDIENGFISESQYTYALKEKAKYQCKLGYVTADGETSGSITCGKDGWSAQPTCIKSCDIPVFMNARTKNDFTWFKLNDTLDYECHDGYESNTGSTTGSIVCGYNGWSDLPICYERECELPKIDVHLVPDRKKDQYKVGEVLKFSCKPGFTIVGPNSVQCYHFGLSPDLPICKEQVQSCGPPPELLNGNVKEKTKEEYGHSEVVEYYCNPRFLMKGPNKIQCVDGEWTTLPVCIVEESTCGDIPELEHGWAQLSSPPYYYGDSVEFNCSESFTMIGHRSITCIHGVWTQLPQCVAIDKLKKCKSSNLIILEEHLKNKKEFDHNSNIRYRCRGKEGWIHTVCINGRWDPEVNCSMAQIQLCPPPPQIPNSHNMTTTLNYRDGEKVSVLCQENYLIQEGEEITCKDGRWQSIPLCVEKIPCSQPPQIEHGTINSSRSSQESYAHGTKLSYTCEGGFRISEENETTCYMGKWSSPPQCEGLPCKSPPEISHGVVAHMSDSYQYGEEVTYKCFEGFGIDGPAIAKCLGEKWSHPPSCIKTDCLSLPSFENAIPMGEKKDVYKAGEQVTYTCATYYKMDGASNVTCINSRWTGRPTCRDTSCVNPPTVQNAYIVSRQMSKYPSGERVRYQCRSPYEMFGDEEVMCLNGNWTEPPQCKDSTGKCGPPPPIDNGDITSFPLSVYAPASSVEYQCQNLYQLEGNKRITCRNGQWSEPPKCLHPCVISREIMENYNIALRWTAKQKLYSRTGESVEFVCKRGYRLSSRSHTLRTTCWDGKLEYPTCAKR

No constants are given. Whether binding was seen depends on the method and setting. Binding calls can cover weak binding; strength is not graded here.

The target of assay [1] is Factor H fragment SCRs 19-20 (murine) (UniProt P06909). Description: ELISA; Figure 1C: binding of rA2 to recombinant fragments of Factor H; both purified.
The target in assay [2] is Factor H fragment SCRs 6-8 (UniProt P08603). The assay is described as above.

B1: recombinant annexin A2 (natural protein, mouse, UniProt P07356 1-339, looked up)
chain: MSTVHEILCKLSLEGDHSTPPSAYGSVKPYTNFDAERDALNIETAVKTKGVDEVTIVNILTNRSNVQRQDIAFAYQRRTKKELPSALKSALSGHLETVILGLLKTPAQYDASELKASMKGLGTDEDSLIEIICSRTNQELQEINRVYKEMYKTDLEKDIISDTSGDFRKLMVALAKGRRAEDGSVIDYELIDQDARELYDAGVKRKGTDVPKWISIMTERSVCHLQKVFERYKSYSPYDMLESIKKEVKGDLENAFLNLVQCIQNKPLYFADRLYDSMKGKGTRDKVLIRIMVSRSEVDMLKIRSEFKRKYGKSLYYYIQQDTKGDYQKALLYLCGGDD
notes: annexin A2, mouse; cDNA reverse transcribed from total mRNA of a C57BL/6 mouse kidney; also called rA2; AnxA2; source: CHO cells, transfected, purified from the supernatant (HiTrap His column)
Consider B1, for which the binding entry in assay [1] and in assay [2] was “binds” throughout.
